Test results taken from patent publication US20250032477A1, “COMPOUNDS, PHARMACEUTICAL COMPOSITIONS, AND METHODS FOR THE TREATMENT, PREVENTION, OR MANAGEMENT OF HYPERPROLIFERATIVE DISORDERS” (VINCERX PHARMA GMBH, priority 2021, published 2025).
Where two headings read alike, the source gives them in different places. At least one structure is not confirmed: it was looked up by name or label, or the drawing left a doubt.

Tests used:
Experiment in all cases: Cytotoxicity in vitro in the presence and absence of elastase (MTT)
SUM149 = type: cell-based; settings: SUM149 cells, 72 h
Protocol: (§1) Cultivation of cells was performed according to standard procedures with the media recommended by the provider. The cells, in a total volume of 100 μL, were seeded in a 96-well plate with a white bottom (#3610). After a 24 h incubation period at 37° C. and […], the medium was exchanged by adding 90 μL fresh medium. The treatment started by adding the test compound in 10 μL of culture medium to the cells in triplicates. Concentrations ranging from 10^−5 M to 10^−13 M were chosen. Two identically treated sets of samples were prepared. One set was treated with the test compound alone, whereas to the second set the compound and 10 nM elastase was added followed by a 72 h incubation period at 37° C. and 5% CO2. The proliferation was detected using the MTT assay (ATCC). At the end of the incubation period the MTT reagent was added to all samples for 4 h. Lysis of the cells followed by addition of the detergent was done overnight. The formed dye was detected at 570 nm. The proliferation of untreated but otherwise identically handled cells was define as the […].

HT29 = type: cell-based, human; settings: HT29 cells, 72 h
Protocol: as §1

NCI H292 = type: cell-based, human; settings: NCI H292 cells, 72 h
Protocol: as §1

786-O = type: cell-based, human; settings: 786-O cells, 72 h
Protocol: as §1

[1] = with 10 nM elastase, read-out: SUM149 IC50 w elastase
[2] = without elastase, read-out: SUM149 IC50 w/o
[3] = with 10 nM elastase, read-out: HT29 IC50 w elastase
[4] = without elastase, read-out: HT29 IC50 w/o
[5] = with 10 nM elastase, read-out: NCI H292 IC 50 w elastase
[6] = without elastase, read-out: NCI H292 IC 50 w/o
[7] = with 10 nM elastase, read-out: 786-O IC50 w elastase
[8] = without elastase, read-out: 786-O IC50 w/o

SMILES	IC50 (SUM149; [1]) [nM]	IC50 (SUM149; [2]) [nM]	IC50 (HT29; [3]) [nM]	IC50 (HT29; [4]) [nM]	IC50 (NCI H292; [5]) [nM]	IC50 (NCI H292; [6]) [nM]	IC50 (786-O; [7]) [nM]	IC50 (786-O; [8]) [nM]
CCCNC(=O)Nc1cccc(S(=O)(=O)Nc2cccc([C@H](CC(=O)O)NC(=O)Nc3ccc(NC(=O)NCCOCCOCCOCCC(=O)N[C@@H](CC(=O)O)C(=O)N4CCC[C@H]4C(=O)N[C@H](C(=O)OCC(=O)N[C@H]4CCc5c(C)c(F)cc6nc7c(c4c56)Cn4c-7cc5c(c4=O)COC(=O)[C@]5(O)CC)C(C)C)cc3)c2)c1 [Compound 12, 2-{[(1S,9S)-9-ethyl-5-fluoro-9-hydroxy-4-methyl-10,13-dioxo-2,3,9,10,13,15-hexahydro-1H,12H-benzo[de]pyrano[3′,4′:6,7]indolizino[1,2-b]quinolin-1-yl]amino}-2-oxoethyl N-(14-{4-[({(1S)-2-carboxy-1-[3-({3-[(propylcarbamoyl)amino]benzene-1-sulfonyl}amino)phenyl]ethyl}carbamoyl)amino]anilino}-14-oxo-4,7,10-trioxa-13-azatetradecanan-1-oyl)-L-alpha-aspartyl-L-prolyl-L-valinate]	0.01 to 0.1	0.1 to 1	0.1 to 1	10 to 100	0.1 to 1	0.1 to 1	0.1 to 1	1.1 to 10
CCCNC(=O)Nc1cccc(S(=O)(=O)Nc2cccc([C@H](CC(=O)O)NC(=O)Nc3ccc(NC(=O)NCCN(C)CCN(C)CCN(C)CC(=O)N[C@@H](CC(N)=O)C(=O)N4CCC[C@H]4C(=O)N[C@H](C(=O)O[C@]4(CC)C(=O)OCc5c4cc4n(c5=O)Cc5cc6cc7c(cc6nc5-4)OCO7)C(C)C)cc3)c2)c1 [Compound 14, (7S)-7-ethyl-8,11-dioxo-7,8,11,13-tetrahydro-2H,10H-[1,3]dioxolo[4,5-g]pyrano[3′,4′:6,7] indolizino[1,2-b]quinolin-7-yl N-{2-[{2-[{2-[({4-[({(1S)-2-carboxy-1-[3-({3-[(propylcarbamoyl)amino]benzene-1-sulfonyl}amino)phenyl]ethyl}carbamoyl)amino]phenyl}carbamoyl)amino]ethyl}(methyl)amino]ethyl}(methyl)amino]ethyl}-N-methylglycyl-L-asparaginyl-L-prolyl-L-valinate]	< 0.01	1.1 to 10	0.01 to 0.1	1.1 to 10	< 0.01	1.1 to 10	0.01 to 0.1	1.1 to 10
